The list shows a part of the results.
test system: T1, CTL2-GFP (C. trachomatis L2/434/Bu, GFP-expressing); set-up: species or system HeLa; Intracellular C. trachomatis growth in HeLa cells, bulk GFP fluorescence relative to DMSO; conditions: bulk GFP, single well; 28.5 h, 10 µM; inhibitor
T1 construct: L2/434/Bu, GFP-expressing

SMILES | % of control remaining [%]
COc1ccccc1-c1cccc(C2CCCN(C(=O)Cc3c[nH]c4ccccc34)C2)n1 (centres unmarked) [CBK286143] | 102.449
CCOc1ccc(C(=O)NC(=S)Nc2cccc(C(=O)O)c2C)cc1Br [CBK265100] | 119.579
CCN(CC)CCN1CCN(c2cncc(-c3cccs3)n2)CC1 [CBK065703] | 141.692
Cc1cc(S(=O)(=O)N2CCN(CCO)C(C)C2)sc1Cl (centres unmarked) [CBK304074] | 115.932
CC(C)n1c(=O)n(CC(=O)NCCc2ccccc2)c2cccnc21 [CBK283701] | 135.686
Nn1c(SCc2ccc(C(=O)O)cc2)nnc1-c1ccccn1 [CBK267553] | 110.464
O=C(O)c1cccc(OCCNS(=O)(=O)c2ccc(N3CCCC3=O)cc2)c1 [CBK299779] | 136.073
CC(=O)Nc1cccc(Oc2nccnc2-c2ccc(F)cc2)c1 [CBK106900] | 123.324
CCC(=O)N1CCCC1c1nc(C)c2c(n1)N(CCc1ccccc1OC)CCC2 (centres unmarked) [CBK286246] | 128.34
O=C1CCC(=O)N1CCOc1nccnc1OC1CCN(CCc2ccccn2)CC1 [CBK084360] | 93.1505
Cn1nnc2cc(NC(=O)NCc3csc(N4CCOCC4)n3)ccc21 [CBK307492] | 135.766
CSc1nnc(-c2cccs2)n1C [CBK067702] | 121.972
CS(=O)(=O)Nc1cc2ccccc2c(-c2cccnc2)n1 [CBK085747] | 112.999
O=C(O)c1ccc(S(=O)(=O)c2ccc(C(=O)O)c(C(=O)O)c2)cc1C(=O)O [CBK022872] | 103.743
COc1ccc(C2=NNC(=O)C(c3ccc(OC)cc3)C2)cc1 (centres unmarked) [CBK287908] | 125.271
Nc1cc(-c2ccccc2)nn1-c1ccc(C(=O)O)cc1 [CBK286565] | 130.457
O=C(COc1ccc(S(=O)(=O)N2CCOCC2)cc1)NCc1ccco1 [CBK268377] | 105.872
COCCNC(=O)c1cc(-c2cccc(C(=O)N(C)C)c2)cnc1N1CCOCC1 [CBK076464] | 107.562
CCn1cc(S(=O)(=O)Nc2cc(C)on2)cn1 [CBK270302] | 128.359
N/C(=N\OC(=O)CCCc1ccccc1)c1ccc(Cl)cc1 [CBK264454] | 104.492
O=C(c1cc[nH]n1)N1CCc2nc(-c3cccc(F)c3)sc2C1 [CBK281915] | 145.194
COc1ccc(-n2ncc3c2CCCN(C(=O)C2CCCC2)C3)cc1 [CBK284501] | 90.4549
O=C(O)c1ccc(NC(=O)c2cn(-c3ccccc3)nc2-c2cc3ccccc3oc2=O)cc1 [CBK266432] | 148.882
CS(=O)(=O)N(Cc1ccc(Cl)cc1)c1ccc(C(=O)N2CCC(C(N)=O)CC2)cc1 [CBK265327] | 113.56
COc1ccccc1OCCOc1cccc(/C=N/n2cnnc2)c1 [CBK263288] | 115.292
Cn1ccnc1SCC(=O)Nc1ccc(I)cc1 [CBK057541] | 142.223
Cc1nc(C2CCCC2)cc([C@H]2CN3CC[C@H]2C[C@@H]3CNC(=O)c2ccco2)n1 [CBK289120] | 125.939

SMILES | % of control remaining [%]
CC(=O)Nc1ccc(C(=O)CSc2nc(-c3ccccc3)cs2)cc1 [CBK268038] | 129.976
O=C(CSCc1nc(O)c2c3c(sc2n1)CCCC3)NC1CCCCC1 [CBK265684] | 100
COc1ccc(-n2cnc3ccccc3c2=O)cc1 [CBK288145] | 144.193
OCC1CCCN1c1cncc(-c2ccc3ccccc3c2)n1 (centres unmarked) [CBK037197] | 102.185
CCn1cc(C(=O)N2CCCCC2c2nc3ccccc3[nH]2)c(C)n1 (centres unmarked) [CBK283778] | 136.952
COc1cc(CN2CCN(C(=O)c3ccccc3)CC2)cc(OC)c1O [CBK263462] | 90.0528
Cc1cc(-c2cc(=O)n(Cc3ccccc3F)nc2C2CC2)on1 [CBK284366] | 98.0603
O=C(NC[C@H]1CC[C@H](c2cc(C(=O)N3CCOCC3)c3ccccc3n2)CC1)C1CCCC1 [CBK285979] | 131.564
Cc1nc(SCC(=O)N2CCC(C)CC2)c2c3c(sc2n1)CCC3 [CBK265944] | 134.088
COc1cc(OC)cc(C(=O)N2CCC3(CC2)CC(=O)c2cc(C)c(C)cc2O3)c1 [CBK164201] | 147.402
Cc1cc(-c2cc3nc(C)c(C)c(O)n3n2)c(C)o1 [CBK284500] | 127.44
Cc1ccc(-c2ncc(OCc3ccccc3)nc2N)c(C)c1 [CBK145129] | 101.266
COC(=O)CCc1ccc(S(=O)(=O)N2CCN(Cc3csc(-c4ccccc4)n3)CC2)cc1 [CBK062812] | 106.047
CC(C)C(=O)NCCN1CCOCC1 [CBK034322] | 112.479
CCNS(=O)(=O)c1ccc(CCC(=O)Nc2ccc3c(c2)OCCO3)cc1 [CBK268255] | 100.058
OC(COc1cccc2c1CCCC2)CN1CCC(Cc2ccccc2)CC1 (centres unmarked) [CBK003829] | 149.825
CC1CCN(S(=O)(=O)c2cc(C(=O)OCC(=O)c3ccccc3)c(Cl)cc2Cl)CC1 [CBK264470] | 114.657
O=C(NCCN1CCCCC1)C1CC(=O)N(c2ccccc2F)C1 (centres unmarked) [CBK305148] | 127.365
CS(=O)(=O)N(CC(=O)O)c1cccc(C(F)(F)F)c1 [CBK286988] | 139.571
COc1ccc(Br)cc1S(=O)(=O)Nc1c(C(=O)O)sc2ncccc12 [CBK049978] | 109.526
COc1ccnc(N2CCCN(CC(N)=O)CC2)n1 [CBK083992] | 128.479
COc1ccc(-c2cc([C@H]3CN4CC[C@H]3C[C@@H]4CNC(C)=O)n(C)n2)cc1OC [CBK288757] | 124.023
COc1ccc(Br)cc1S(=O)(=O)Nc1ccsc1C(=O)Nc1ccc(F)cc1 [CBK004593] | 78.0333
Cc1ccc(C(=O)N2CN(C(=O)CNC3CC3)CC2(C)C)cc1 [CBK089574C] | 124.146
CC(=O)Nc1ccc(S(=O)(=O)N2CCCC(CO)C2)cc1 (centres unmarked) [CBK262108] | 120.991
Cc1ccc(C(=O)O)c(NC(=O)c2ccccc2F)c1 [CBK126744] | 74.6541
COc1ccc(C(=O)N2CCC3(CCN(C(=O)c4ccc5[nH]c(=O)[nH]c5c4)C3)C2)cc1OC (centres unmarked) [CBK131793] | 54.731

SMILES | % of control remaining [%]
CCn1c(=O)n(CC(=O)N(C)C)c2cccnc21 [CBK282299] | 143.624
Cc1ccc(N2C(=O)CSC2c2ccc(Cl)cc2Cl)cc1 (centres unmarked) [CBK025673] | 103.377
O=C(CSc1ccccn1)Nc1cccc(Cl)c1Cl [CBK057679] | 122.368
Oc1ccc(Nc2cc(-c3ccc(Cl)cc3)ncn2)cc1 [CBK090751] | 158.986
CCC(C)NC(=O)C1=CCN(S(C)(=O)=O)C1 (centres unmarked) [CBK282861] | 95.8032
CS(=O)(=O)c1ccc(-c2nccnc2N2CCCCC2CO)cc1 (centres unmarked) [CBK037657] | 147.52
CCCS(=O)(=O)Nc1nccnc1N1CCN(c2cnccn2)CC1 [CBK048828] | 95.4807
Cc1c(C(=O)Nc2cccc(S(=O)(=O)NCc3ccco3)c2)cnn1-c1ccccc1 [CBK297762] | 124.042
Nc1nc(NCc2ccccc2)nc(-c2cc(Cl)ccc2O)n1 [CBK074526] | 63.0933
COc1ccc(CCNC(=O)Nc2ccccc2[N+](=O)[O-])cc1 [CBK266497] | 140.251
CCOc1ccccc1NC(=O)Nc1cccc(S(N)(=O)=O)c1 [CBK057282] | 125.741
OCCNc1nccnc1Cl [CBK089793] | 92.9559
CCSc1nc2ccccc2n1C(=O)c1ccc(S(=O)(=O)N2CCCCCC2)cc1 [CBK265825] | 138.749
Nc1ccc(-c2cnc(NCc3ccc4c(c3)OCO4)c(C(=O)Nc3ccc4c(c3)OCCO4)c2)cc1 [CBK138480T] | 70.9408
CC(=O)c1cccc(-c2nc(CC3CCN(C)CC3)nn2CCO)c1 [CBK306645] | 95.4564
O=C(O)C1(Oc2ccc3ncccc3c2)CCN(CC2CCOC2)CC1 (centres unmarked) [CBK307336] | 139.76
Cc1cccc(OCC(=O)NC(=S)Nc2ccccc2N2CCCCC2)c1C [CBK266298] | 141.69
Cc1ccc2oc(C(=O)Nc3ccc(-n4cnnn4)cc3)c(C)c2c1 [CBK287804] | 105.087
Cc1ccc2[nH]c3c(c2c1)CCCC3NCC(O)Cc1ccccc1 (centres unmarked) [CBK263154] | 107.637
CCOC(=O)CC(=O)CSc1nc(C)cc(-c2cccnc2)c1C#N [CBK267460] | 160.885
Cc1nccn1-c1ccc(NC(=O)C2CC(=O)N(C3CCCC3)C2)cc1F (centres unmarked) [CBK298286] | 158.255
CC(COC(C)(C)C)Oc1nccnc1OCc1ccc(Cl)c(Cl)c1 (centres unmarked) [CBK161607] | 141.629
Cn1cc(NC(=O)N2CCCN(Cc3ccccn3)CC2)nn1 [CBK307034] | 105.87
COc1ccccc1Cn1ncc2c1CCCC2NC(=O)C1CCC1 (centres unmarked) [CBK282895] | 85.5675
Cc1cc(C[C@@H]2COC[C@H]2NCCc2ccccc2)on1 [CBK284882] | 127.905
O=C(C1CCCC1)N1CCC(c2nnc3n2CCCCC3)CC1 [CBK284612] | 145.404

Looked up one by one from the list above (5):
SMILES | % of control remaining [%]
Nc1nc(NCc2ccccc2)nc(-c2cc(Cl)ccc2O)n1 [CBK074526] | 63.0933
COc1ccc(Br)cc1S(=O)(=O)Nc1c(C(=O)O)sc2ncccc12 [CBK049978] | 109.526
CC(=O)Nc1ccc(S(=O)(=O)N2CCCC(CO)C2)cc1 (centres unmarked) [CBK262108] | 120.991
CCOc1ccc(C(=O)NC(=S)Nc2cccc(C(=O)O)c2C)cc1Br [CBK265100] | 119.579
Cc1cc(-c2cc(=O)n(Cc3ccccc3F)nc2C2CC2)on1 [CBK284366] | 98.0603
